# ± gives the standard deviation of the averaged measurements. The list shows a part of the results, in another mix than the full data.
# Experiments:
# Experiment in all cases: NP40-soluble protein abundance relative to vehicle (solubility fold change) (ratio); higher = more soluble protein in presence of AMP-PNP
# [1] = target: T1, E9PIV2 and related entries (UniProt P24001)
# T1 sequence (whole entry): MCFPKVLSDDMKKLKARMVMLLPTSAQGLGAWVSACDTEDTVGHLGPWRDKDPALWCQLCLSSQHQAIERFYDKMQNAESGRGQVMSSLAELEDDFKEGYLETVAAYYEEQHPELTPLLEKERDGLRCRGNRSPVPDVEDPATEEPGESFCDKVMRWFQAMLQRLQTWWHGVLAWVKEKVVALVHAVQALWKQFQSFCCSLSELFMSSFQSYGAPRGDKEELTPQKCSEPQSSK
# How it was run: (§1)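 Jurkat crude lysate prepared with a Dounce homogeniser was treated at eight concentrations spanning 0.1 to 10 mM, 10 min at room temperature then 3 min at 37 °C. Solubilisation with 0.8% NP40 and benzonase and ultracentrifugation preceded TMT labelling of the supernatant for LC-MS/MS. Fold change against the detergent-processed vehicle was determined per replicate from vsn-normalised intensities, across three independent experiments.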
# E9PNT2 = target: T2, E9PNT2 (UniProt Q6ZUM4)
# T2 sequence (whole entry): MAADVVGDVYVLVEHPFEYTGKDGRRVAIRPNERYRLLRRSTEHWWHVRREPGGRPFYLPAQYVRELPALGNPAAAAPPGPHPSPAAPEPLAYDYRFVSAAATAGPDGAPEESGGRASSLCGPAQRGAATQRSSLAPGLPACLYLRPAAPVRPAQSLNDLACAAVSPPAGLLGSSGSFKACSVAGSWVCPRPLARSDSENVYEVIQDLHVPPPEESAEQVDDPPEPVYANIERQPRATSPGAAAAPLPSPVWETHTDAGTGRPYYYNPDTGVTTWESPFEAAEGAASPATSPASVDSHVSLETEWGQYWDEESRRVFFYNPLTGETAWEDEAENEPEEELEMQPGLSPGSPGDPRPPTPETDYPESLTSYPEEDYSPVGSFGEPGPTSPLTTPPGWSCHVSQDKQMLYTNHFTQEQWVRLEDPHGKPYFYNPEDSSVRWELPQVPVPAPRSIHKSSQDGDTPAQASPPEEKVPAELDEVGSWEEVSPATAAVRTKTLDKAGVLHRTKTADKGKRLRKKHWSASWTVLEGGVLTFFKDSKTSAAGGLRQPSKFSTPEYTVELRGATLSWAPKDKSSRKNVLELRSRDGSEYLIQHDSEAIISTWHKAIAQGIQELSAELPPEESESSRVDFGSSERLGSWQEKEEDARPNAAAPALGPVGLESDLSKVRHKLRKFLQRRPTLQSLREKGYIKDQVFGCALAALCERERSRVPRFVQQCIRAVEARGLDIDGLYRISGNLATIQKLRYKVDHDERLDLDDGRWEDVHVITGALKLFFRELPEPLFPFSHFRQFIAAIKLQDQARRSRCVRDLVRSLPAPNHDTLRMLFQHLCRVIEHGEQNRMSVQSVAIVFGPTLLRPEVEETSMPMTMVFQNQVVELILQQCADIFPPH
# How it was run: as §1
# [2] = target: T3, E9PNW4 and related entries (UniProt P13987)
# T3 sequence (whole entry): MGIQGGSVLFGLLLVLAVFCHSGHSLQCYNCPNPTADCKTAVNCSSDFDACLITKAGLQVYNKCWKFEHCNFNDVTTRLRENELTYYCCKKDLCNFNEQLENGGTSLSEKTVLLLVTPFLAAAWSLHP
# How it was run: as §1
# [3] = target: T4, E9PP16 and related entries (UniProt Q8ND30)
# T4 sequence (whole entry): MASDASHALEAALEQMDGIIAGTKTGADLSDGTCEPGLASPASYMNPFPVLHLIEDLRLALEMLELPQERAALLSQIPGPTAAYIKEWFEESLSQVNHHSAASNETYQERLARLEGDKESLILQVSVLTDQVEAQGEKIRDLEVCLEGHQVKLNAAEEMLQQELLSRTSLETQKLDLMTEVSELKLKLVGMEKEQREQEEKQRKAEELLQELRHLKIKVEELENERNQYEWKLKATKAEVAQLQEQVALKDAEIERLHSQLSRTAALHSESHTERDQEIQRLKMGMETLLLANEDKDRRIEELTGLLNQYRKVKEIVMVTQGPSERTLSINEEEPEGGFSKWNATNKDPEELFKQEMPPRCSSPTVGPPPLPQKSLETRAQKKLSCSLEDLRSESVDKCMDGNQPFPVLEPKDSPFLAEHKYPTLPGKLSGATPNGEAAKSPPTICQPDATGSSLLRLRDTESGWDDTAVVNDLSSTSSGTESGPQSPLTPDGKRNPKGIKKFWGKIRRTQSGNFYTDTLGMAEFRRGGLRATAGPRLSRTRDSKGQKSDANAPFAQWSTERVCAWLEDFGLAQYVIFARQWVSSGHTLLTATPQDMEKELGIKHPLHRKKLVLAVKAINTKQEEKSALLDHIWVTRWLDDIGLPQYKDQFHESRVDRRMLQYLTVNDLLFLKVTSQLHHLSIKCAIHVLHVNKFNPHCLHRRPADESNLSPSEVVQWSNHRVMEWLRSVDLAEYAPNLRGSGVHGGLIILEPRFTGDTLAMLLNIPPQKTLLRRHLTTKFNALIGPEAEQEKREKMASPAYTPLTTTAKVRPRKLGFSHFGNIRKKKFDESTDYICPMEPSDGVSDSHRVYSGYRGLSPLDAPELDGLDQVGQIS
# How it was run: as §1
compound,measurement,setting,value
Nc1ncnc2c1ncn2[C@@H]1O[C@H](COP(=O)(O)OP(=O)(O)NP(=O)(O)O)[C@@H](O)[C@H]1O [adenylyl imidodiphosphate],NP40-soluble protein abundance,[1]; concentration: 6mM,0.981 ± 0.012
same,NP40-soluble protein abundance,[1]; concentration: 8mM,1 ± 0.016
same,NP40-soluble protein abundance,[1]; concentration: 10mM,0.9704 ± 0.0055
same,NP40-soluble protein abundance,E9PNT2; concentration: 1mM,0.982 ± 0.028
same,NP40-soluble protein abundance,E9PNT2; concentration: 2mM,0.934 ± 0.048
same,NP40-soluble protein abundance,E9PNT2; concentration: 4mM,0.979 ± 0.031
same,NP40-soluble protein abundance,E9PNT2; concentration: 6mM,0.99 ± 0.052
same,NP40-soluble protein abundance,E9PNT2; concentration: 8mM,1.02 ± 0.027
same,NP40-soluble protein abundance,E9PNT2; concentration: 10mM,1.02 ± 0.032
same,NP40-soluble protein abundance,[2]; concentration: 1mM,1.05 ± 0.053
same,NP40-soluble protein abundance,[2]; concentration: 2mM,1.11 ± 0.13
same,NP40-soluble protein abundance,[2]; concentration: 4mM,1.03 ± 0.049
same,NP40-soluble protein abundance,[2]; concentration: 6mM,1.07 ± 0.051
same,NP40-soluble protein abundance,[2]; concentration: 8mM,1.1 ± 0.015
same,NP40-soluble protein abundance,[2]; concentration: 10mM,1.06 ± 0.03
same,NP40-soluble protein abundance,[3]; concentration: 1mM,1.004 ± 0.0032
same,NP40-soluble protein abundance,[3]; concentration: 2mM,0.997 ± 0.022
same,NP40-soluble protein abundance,[3]; concentration: 4mM,0.996 ± 0.028
same,NP40-soluble protein abundance,[3]; concentration: 6mM,1.05 ± 0.036

# Part of the list above, bar-delimited:
compound | measurement | setting | value
Nc1ncnc2c1ncn2[C@@H]1O[C@H](COP(=O)(O)OP(=O)(O)NP(=O)(O)O)[C@@H](O)[C@H]1O [adenylyl imidodiphosphate] | NP40-soluble protein abundance | [2]; concentration: 2mM | 1.11 ± 0.13
same | NP40-soluble protein abundance | [3]; concentration: 6mM | 1.05 ± 0.036
